Results published in paper PMC3386226.
No constants are given. Whether binding was seen depends on the method and setting. Binding seen in cells or lysates may run through a third protein. Some results given as binding are weak or reduced against the parent protein; the word gives no strength. Where a sequence is shown, tags or fusion partners need not be part of it.

Amino acid sequences for entries named in this document (tags omitted).
UniProt Q02099: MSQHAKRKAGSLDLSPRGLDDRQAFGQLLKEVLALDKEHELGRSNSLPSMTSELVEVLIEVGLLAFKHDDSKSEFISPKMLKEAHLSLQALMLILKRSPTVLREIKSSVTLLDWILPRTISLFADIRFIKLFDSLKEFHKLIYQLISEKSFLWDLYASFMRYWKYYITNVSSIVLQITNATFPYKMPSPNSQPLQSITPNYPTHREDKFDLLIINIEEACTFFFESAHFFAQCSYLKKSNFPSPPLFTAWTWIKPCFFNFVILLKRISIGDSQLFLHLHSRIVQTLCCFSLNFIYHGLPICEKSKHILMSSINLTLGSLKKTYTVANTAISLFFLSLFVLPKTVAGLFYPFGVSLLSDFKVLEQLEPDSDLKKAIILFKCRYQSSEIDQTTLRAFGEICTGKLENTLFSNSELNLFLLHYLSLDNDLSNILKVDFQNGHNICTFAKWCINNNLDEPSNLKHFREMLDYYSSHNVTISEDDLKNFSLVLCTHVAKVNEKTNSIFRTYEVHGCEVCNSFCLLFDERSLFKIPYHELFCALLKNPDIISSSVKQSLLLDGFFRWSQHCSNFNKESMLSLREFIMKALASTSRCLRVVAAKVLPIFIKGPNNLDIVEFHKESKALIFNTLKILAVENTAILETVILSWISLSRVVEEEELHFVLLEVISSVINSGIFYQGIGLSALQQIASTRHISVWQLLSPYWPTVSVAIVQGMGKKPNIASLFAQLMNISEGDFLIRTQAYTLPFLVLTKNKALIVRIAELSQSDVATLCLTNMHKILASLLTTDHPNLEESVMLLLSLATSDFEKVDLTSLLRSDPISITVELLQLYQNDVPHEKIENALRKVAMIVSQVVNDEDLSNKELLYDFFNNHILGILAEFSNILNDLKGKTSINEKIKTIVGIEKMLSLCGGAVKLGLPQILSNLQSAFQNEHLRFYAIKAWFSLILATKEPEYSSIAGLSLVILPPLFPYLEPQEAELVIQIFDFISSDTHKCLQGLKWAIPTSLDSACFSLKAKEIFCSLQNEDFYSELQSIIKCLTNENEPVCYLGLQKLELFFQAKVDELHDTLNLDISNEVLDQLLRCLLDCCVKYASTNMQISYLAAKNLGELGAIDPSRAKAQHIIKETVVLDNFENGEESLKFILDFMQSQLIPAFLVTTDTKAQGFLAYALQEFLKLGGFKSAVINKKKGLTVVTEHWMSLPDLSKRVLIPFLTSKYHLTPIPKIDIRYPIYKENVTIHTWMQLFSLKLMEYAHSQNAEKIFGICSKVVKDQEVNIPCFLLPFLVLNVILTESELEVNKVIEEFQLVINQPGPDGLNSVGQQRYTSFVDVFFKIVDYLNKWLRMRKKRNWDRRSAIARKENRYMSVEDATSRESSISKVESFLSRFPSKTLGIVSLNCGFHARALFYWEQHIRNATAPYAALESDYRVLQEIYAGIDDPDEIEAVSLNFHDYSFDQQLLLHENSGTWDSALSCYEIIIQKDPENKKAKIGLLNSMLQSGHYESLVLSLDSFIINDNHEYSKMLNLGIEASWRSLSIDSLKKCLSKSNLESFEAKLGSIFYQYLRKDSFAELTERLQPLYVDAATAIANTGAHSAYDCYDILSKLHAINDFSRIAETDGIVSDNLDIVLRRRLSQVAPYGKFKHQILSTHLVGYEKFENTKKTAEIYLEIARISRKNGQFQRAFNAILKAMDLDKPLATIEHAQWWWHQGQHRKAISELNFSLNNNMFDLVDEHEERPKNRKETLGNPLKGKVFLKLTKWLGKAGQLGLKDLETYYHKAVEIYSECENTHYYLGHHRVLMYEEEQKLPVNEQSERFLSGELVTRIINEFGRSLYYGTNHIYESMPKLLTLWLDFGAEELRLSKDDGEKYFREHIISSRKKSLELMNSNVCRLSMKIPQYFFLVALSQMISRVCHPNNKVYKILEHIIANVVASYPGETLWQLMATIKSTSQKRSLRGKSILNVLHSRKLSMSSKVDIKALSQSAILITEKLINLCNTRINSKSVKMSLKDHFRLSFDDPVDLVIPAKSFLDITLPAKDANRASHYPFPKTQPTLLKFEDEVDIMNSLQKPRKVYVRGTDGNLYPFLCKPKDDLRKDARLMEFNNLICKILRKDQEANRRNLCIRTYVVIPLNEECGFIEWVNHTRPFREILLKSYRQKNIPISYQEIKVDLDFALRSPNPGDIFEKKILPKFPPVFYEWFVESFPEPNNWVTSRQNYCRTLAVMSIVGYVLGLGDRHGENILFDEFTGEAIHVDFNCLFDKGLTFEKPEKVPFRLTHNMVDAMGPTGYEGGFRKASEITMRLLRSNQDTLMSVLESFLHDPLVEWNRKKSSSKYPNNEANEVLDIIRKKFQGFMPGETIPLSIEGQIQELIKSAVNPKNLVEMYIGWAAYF

Assays:
Assay in all cases: pull-down; recombinant GST and GST-fusion proteins used for affinity capture from soluble S. pombe myc-rad3 extracts; Rad3 detected with α-Myc, Cdc13 with α-Cdc13; only the target purified
[1] = molecular target: T1, Rad4[288–648] fused to GST (wild type; includes BRCT (3+4) and the unstructured C-terminal tail) (S. pombe) (UniProt P32372)
T1 sequence: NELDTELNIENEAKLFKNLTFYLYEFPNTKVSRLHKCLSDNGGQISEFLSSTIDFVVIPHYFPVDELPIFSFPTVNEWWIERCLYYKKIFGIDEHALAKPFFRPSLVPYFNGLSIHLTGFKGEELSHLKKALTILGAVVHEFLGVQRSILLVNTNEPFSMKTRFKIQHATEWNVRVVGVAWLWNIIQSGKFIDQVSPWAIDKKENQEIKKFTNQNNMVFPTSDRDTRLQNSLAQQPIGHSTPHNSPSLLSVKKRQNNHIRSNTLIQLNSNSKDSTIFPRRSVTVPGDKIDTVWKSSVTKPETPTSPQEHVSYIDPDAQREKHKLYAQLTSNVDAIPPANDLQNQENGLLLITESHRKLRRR

[2] = molecular target: T2, Rad4[288–648] Y599R fused to GST (AAD-mutated) (S. pombe) (UniProt P32372)
T2 sequence: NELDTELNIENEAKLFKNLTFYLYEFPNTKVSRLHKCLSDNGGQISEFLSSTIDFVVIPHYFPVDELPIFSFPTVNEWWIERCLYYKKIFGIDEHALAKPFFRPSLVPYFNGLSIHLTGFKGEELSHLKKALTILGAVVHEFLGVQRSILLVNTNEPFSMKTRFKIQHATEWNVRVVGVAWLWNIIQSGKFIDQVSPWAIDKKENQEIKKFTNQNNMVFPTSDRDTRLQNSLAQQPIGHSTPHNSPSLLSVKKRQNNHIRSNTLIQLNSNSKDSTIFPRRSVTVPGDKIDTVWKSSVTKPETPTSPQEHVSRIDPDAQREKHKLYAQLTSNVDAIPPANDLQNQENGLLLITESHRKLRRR

[3] = molecular target: T3, Rad4[288–648] S641A (CDK phosphorylation site mutant) fused to GST (S. pombe) (UniProt P32372)
T3 sequence: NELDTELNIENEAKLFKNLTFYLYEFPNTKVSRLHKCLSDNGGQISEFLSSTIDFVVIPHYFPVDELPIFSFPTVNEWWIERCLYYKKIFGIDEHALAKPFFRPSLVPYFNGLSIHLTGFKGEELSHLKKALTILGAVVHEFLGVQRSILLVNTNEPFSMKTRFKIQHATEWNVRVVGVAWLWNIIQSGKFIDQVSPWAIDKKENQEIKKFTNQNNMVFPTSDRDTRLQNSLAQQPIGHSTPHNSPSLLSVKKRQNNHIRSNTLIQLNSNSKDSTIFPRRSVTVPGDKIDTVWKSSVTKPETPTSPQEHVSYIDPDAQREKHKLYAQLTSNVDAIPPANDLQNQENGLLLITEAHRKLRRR

[4] = molecular target: T4, Rad4[288–648] with deletion of residues 643–645 (putative cyclin binding motif, RxL) fused to GST (S. pombe) (UniProt P32372)
T4 sequence: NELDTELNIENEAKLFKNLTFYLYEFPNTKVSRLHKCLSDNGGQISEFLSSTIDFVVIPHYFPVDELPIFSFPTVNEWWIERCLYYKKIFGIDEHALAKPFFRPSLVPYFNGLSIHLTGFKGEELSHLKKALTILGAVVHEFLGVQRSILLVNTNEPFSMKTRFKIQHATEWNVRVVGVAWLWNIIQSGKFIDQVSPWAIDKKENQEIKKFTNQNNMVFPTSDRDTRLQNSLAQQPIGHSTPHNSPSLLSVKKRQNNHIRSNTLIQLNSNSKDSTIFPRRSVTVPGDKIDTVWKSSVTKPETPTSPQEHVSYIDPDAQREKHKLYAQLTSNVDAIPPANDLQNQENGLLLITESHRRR

Measured: binding

Rad3^ATR-Myc (from 3myc-rad3 S. pombe cells) (from UniProt Q02099 1-2386)
binds: [1] | [2]

B1: Cdc13^CyclinB (protein, UniProt P10815 1-482)
chain: MTTRRLTRQHLLANTLGNNDENHPSNHIARAKSSLHSSENSLVNGKKATVSSTNVPKKRHALDDVSNFHNKEGVPLASKNTNVRHTTASVSTRRALEEKSIIPATDDEPASKKRRQPSVFNSSVPSLPQHLSTKSHSVSTHGVDAFHKDQATIPKKLKKDVDERVVSKDIPKLHRDSVESPESQDWDDLDAEDWADPLMVSEYVVDIFEYLNELEIETMPSPTYMDRQKELAWKMRGILTDWLIEVHSRFRLLPETLFLAVNIIDRFLSLRVCSLNKLQLVGIAALFIASKYEEVMCPSVQNFVYMADGGYDEEEILQAERYILRVLEFNLAYPNPMNFLRRISKADFYDIQTRTVAKYLVEIGLLDHKLLPYPPSQQCAAAMYLAREMLGRGPWNRNLVHYSGYEEYQLISVVKKMINYLQKPVQHEAFFKKYASKKFMKASLFVRDWIKKNSIPLGDDADEDYTFHKQKRIQHDMKDEEW
binds: all assays above
